At least one structure is not confirmed: it was looked up by name or label, or the drawing left a doubt.
How the values were obtained:
[1] = test system: Ndufs4(KO) mouse model of LS; settings: rapamycin treated Ndufs4(KO) mice; published data shown for reference; cited from earlier work
[2] = test system: control and Ndufs4(KO) mice; assay: Glucose tolerance test (GTT) and glucose induced lactate test; type: in vivo, mouse; settings: 2 g/kg glucose IP; pexidartinib 300 mg/kg/d in chow, IPI-549 100 mg/kg/d in chow, rapamycin (ABI-009) 8 mg/kg/d IP
Excerpt: Point-of-care glucose and lactate testing. Blood glucose and lactate measurements were collected using point-of-care meters (Prodigy Autocode® glucose meter, product #51850-3466188, Prodigy® Diabetes Care, LLC, Charlotte, NC; lactate assay meter, product #40828, Nova Biomedical, Waltham, MA) and the tail-prick method, as previously described (Stokes et al. Elife 2021; 10:e65400).
Glucose tolerance test (GTT) and glucose induced lactate test. Prior to performing the GTT, mice were fasted for 4 hours, from 10 AM-2 PM. The fasting duration was limited to 4 hours given the sensitivity of untreated Ndufs4(KO) animals to hypoglycemia and related sequelae (dysregulation of body temperature, hypoglycemia induced seizure, etc.). For the ABI-009 cohort, mice received their daily ABI-009 treatment at the start of this fasting period. At the end of the 4 hour fast, baseline blood glucose and lactate values were collecting using point-of-care meters and the tail-prick method. Mice were then injected by IP with 2 g/kg dextrose (10 microliters/gram body weight of 200 mg/mL glucose in 1×PBS, 0.2 micron sterile filtered) using an insulin syringe (31-gauge, 6 mm length, 3/10 cc, BD Veo Ultra-Fine needle). Glucose and lactate levels were measured using a minimally invasive tail-prick method at designated timepoints post-injection.

With CO[C@H]1C[C@@H]2CC[C@@H](C)[C@@](O)(O2)C(=O)C(=O)N2CCCC[C@H]2C(=O)O[C@H]([C@H](C)C[C@@H]2CC[C@@H](O)[C@H](OC)C2)CC(=O)[C@H](C)/C=C(\C)[C@@H](O)[C@@H](OC)C(=O)[C@H](C)C[C@H](C)/C=C/C=C/C=C/1C [rapamycin] as the molecule, how does the median survival [1] read?
The median survival was 110 days.

What about the “blood lactate spike in response to a glucose bolus” value [2] of the same molecule?
The value was “similarly prevented the lactate sequelae”.

Source: patent US20230321063A1, “COMPOSITIONS AND METHODS TO REDUCE NEUROINFLAMMATION” (Seattle Children's Hospital d/b/a Seattle Children's …, priority 2020, published 2023)
